# Assay: 13C hyperpolarization before and after precipitation and redissolution
# Format: physicochemical
# Conditions: 1-13C
compound,measurement,setting,value
"O=C([O-])/C=C/[13C](=O)[O-].[Na+].[Na+] [sodium fumarate, sodium fumarate-1-^13C]",hyperpolarization before precipitation,after further finetuning of the process parameters,45%
same,hyperpolarization after precipitation and redissolution,"redissolved in D2O containing sodium bicarbonate (300 mM), after further finetuning",25%

# From patent US20230295058A1, “SYSTEMS AND METHODS FOR GENERATION OF HYPERPOLARIZED COMPOUNDS USING PARAHYDROGEN” (NVISION IMAGING TECHNOLOGIES GMBH, priority 2020, published 2023)
